These are yes or no findings as the source states them, for the method shown. Some results given as binding are weak or reduced against the parent protein; the word gives no strength.
Legend:
[1] = molecular target: HLA-DR from KG-1 cells (cell lysate) (human); experiment: antibody affinity column on KG-1 lysate, MALDI-TOF identification
[2] = molecular target: HLA-DR on cells that express HLA-DR (human); experiment: flow cytometry on cell lines and normal donors' blood cells

binding [1]: binds
binding [2]: binds
B1: K8-355 (antibody, mouse IgG1, V domains shown)
VH: QIQLVQSGPELKKPGETVKISCKASKYTFTNYGMNWVKQAPGKVLRWMGWINTYTGEPTYADDFKGRFAFSLETSASTAYLQINNLKNEDMATYFCATTTLITYYFDYWGQGTTLTVSS
VL: DIQMTQTTSSLSASLGDRVTISCRSSQDISKYLNWYQQKPDGTVKLLIYYTSRLHSGVPSRFSGSGSGTDYSLTISNLEQEDIATYFCQQGDTVPWTFGGGTKLEIK
